Data as given in the supplement of paper PMC10849652.
The other results are listed elsewhere or left out.

Protein sequences, listed by entry. Tags and fused reporters are not part of them. Lines headed by an entry give the natural chain unless they say otherwise; changes in a name come on top.
UniProt P04844: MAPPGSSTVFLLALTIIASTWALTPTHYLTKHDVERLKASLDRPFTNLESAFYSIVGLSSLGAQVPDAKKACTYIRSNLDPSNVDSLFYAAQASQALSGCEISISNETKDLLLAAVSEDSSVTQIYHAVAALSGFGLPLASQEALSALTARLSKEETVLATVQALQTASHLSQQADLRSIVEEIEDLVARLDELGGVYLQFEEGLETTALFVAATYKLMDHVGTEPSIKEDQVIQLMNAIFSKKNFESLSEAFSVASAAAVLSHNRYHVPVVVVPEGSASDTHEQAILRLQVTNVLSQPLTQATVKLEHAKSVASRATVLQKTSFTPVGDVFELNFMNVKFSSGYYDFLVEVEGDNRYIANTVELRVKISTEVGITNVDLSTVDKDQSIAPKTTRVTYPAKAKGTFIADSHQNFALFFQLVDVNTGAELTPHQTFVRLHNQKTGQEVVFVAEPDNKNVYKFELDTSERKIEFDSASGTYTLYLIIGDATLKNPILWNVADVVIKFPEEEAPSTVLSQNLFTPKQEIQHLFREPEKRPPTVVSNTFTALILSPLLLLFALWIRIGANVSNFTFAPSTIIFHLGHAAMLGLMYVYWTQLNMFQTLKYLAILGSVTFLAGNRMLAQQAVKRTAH
UniProt Q5VT52: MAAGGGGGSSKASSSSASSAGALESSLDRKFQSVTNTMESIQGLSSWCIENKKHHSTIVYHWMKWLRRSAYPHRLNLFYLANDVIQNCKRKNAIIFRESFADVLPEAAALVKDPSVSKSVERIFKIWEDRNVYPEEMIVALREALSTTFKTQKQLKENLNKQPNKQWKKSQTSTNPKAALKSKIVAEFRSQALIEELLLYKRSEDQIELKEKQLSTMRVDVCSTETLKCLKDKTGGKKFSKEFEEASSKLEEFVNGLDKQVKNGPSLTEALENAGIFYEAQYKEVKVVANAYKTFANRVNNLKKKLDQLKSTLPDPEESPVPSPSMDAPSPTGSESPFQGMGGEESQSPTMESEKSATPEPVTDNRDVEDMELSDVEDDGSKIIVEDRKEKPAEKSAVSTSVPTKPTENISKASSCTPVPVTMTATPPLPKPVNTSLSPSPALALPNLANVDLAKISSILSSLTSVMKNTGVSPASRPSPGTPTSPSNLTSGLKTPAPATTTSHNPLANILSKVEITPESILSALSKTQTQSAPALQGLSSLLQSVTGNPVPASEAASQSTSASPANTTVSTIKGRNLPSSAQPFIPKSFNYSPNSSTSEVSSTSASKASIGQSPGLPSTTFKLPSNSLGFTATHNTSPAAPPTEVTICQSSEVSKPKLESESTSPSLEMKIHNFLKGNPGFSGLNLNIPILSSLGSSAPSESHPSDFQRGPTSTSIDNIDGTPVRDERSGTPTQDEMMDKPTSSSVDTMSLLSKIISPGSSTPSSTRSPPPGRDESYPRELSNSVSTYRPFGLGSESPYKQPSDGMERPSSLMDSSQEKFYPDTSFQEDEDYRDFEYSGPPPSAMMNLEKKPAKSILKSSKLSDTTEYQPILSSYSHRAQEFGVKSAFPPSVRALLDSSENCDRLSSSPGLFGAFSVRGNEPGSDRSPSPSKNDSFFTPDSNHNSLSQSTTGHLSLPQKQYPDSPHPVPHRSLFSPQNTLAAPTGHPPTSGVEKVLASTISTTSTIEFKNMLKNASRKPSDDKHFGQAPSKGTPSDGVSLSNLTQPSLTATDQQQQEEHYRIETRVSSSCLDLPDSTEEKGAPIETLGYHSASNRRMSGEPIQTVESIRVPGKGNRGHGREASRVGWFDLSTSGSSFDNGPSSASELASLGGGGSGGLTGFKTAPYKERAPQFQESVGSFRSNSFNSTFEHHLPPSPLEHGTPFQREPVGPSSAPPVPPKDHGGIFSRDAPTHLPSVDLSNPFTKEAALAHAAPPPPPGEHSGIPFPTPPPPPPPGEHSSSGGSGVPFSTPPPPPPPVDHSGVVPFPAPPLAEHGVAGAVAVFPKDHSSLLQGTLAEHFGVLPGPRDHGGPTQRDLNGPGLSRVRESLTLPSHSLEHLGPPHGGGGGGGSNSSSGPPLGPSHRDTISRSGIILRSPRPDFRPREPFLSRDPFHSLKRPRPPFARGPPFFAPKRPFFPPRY
UniProt P05386, whole entry, looked up: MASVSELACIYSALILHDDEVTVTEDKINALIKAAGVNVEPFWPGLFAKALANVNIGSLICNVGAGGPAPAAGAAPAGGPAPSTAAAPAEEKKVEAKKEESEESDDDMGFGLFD
UniProt Q9BY42: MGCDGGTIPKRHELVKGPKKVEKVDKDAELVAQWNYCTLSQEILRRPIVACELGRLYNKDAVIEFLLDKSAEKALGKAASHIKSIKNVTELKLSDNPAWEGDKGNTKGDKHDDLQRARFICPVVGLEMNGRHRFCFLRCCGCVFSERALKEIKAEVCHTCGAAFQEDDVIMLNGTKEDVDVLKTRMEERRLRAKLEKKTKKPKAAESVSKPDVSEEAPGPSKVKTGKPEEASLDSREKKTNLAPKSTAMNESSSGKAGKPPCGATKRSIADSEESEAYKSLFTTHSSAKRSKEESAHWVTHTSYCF
UniProt Q9NQC3: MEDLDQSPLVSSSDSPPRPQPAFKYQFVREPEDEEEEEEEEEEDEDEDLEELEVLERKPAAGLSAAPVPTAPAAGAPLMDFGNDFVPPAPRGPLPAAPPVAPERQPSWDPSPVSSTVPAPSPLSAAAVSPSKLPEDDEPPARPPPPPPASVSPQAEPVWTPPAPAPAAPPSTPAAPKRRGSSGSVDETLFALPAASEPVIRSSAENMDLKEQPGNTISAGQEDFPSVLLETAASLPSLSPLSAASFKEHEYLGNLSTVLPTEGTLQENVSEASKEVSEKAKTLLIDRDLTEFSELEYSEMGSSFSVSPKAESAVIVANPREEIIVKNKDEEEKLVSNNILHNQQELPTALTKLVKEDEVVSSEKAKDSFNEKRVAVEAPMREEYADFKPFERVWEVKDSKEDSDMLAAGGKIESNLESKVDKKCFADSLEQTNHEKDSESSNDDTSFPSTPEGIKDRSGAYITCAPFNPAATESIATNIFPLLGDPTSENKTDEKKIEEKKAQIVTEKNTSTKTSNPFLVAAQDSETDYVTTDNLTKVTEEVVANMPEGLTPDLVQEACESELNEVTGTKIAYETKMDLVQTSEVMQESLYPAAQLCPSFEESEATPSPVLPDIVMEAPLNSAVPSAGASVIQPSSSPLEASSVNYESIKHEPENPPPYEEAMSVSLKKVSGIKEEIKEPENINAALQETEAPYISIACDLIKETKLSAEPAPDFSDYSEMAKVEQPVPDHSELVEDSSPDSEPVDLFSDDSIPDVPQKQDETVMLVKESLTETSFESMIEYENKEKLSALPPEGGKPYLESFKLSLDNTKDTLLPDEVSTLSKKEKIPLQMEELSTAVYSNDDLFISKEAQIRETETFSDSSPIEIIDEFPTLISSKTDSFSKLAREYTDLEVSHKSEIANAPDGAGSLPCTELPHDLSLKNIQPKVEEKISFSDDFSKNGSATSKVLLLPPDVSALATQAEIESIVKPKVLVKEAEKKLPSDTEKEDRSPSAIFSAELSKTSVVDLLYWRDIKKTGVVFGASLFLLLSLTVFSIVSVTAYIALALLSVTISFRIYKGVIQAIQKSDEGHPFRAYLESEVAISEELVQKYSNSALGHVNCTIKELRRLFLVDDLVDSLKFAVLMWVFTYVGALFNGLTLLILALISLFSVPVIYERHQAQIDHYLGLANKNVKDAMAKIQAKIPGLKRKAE
UniProt Q96IZ7: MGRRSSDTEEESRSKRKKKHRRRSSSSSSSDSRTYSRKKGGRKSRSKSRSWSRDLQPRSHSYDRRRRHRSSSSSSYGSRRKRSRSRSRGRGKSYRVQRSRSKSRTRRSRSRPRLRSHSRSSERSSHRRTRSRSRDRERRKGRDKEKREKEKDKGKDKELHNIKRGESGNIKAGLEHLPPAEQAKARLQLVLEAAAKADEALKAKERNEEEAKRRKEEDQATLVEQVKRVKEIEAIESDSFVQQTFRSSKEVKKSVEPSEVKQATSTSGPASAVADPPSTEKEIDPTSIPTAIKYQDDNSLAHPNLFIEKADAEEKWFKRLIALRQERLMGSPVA
UniProt Q15050: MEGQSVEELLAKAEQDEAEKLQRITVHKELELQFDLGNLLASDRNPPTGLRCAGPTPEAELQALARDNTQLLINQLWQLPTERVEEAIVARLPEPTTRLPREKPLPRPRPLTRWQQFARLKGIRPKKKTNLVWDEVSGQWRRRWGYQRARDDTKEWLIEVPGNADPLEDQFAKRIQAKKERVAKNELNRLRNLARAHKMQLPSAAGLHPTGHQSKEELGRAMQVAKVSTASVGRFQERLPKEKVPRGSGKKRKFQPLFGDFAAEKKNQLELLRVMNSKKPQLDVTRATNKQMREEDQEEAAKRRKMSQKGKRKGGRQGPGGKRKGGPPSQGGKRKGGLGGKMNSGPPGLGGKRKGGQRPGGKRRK

Legend:
Experiment in all cases: log2 fold change, soluble protein after heating vs DMSO (PISA); higher = thermal stabilisation; K562 lysate, 10 uM; active = over 0.2 and 3.5 SD of the protein, either way, in both replicates (recomputed)
vemurafenib = compound: CCCS(=O)(=O)Nc1ccc(F)c(C(=O)c2c[nH]c3ncc(-c4ccc(Cl)cc4)cc23)c1F [vemurafenib]
Outline: (§1)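 Pellets of K562 cells were dounce-homogenised in PBS pH 7.4 with 1 mM MgCl2, and the crude extract was held at 1 mg/mL protein for a 30 min treatment with 10 μM compound. Aliquots were heated for 3 min over 48°C-58°C and pooled before NP-40 was added to 0.5% at 4°C. The supernatant from 21,000xg for 90 min was quantified by TMTpro 16plex LC-MS/MS with channel sums equalised. Values are reported from duplicates as log-two fold change in thermal stability relative to solvent controls.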

[1] = compound: CCCS(=O)(=O)Nc1ccc(F)c(C(=O)c2c[nH]c3ncc(Cl)cc23)c1F
Outline: as §1

barasertib = compound: CCN(CCCOc1ccc2c(Nc3cc(CC(=O)Nc4cccc(F)c4)[nH]n3)ncnc2c1)CCOP(=O)(O)O [barasertib]
Outline: as §1

[2] = compound: CC[C@@H]1C(=O)N(C)c2cnc(Nc3ccc(C(=O)NC4CCN(C)CC4)cc3OC)nc2N1C1CCCC1
Outline: as §1

volasertib = compound: CC[C@@H]1C(=O)N(C)c2cnc(Nc3ccc(C(=O)N[C@H]4CC[C@H](N5CCN(CC6CC6)CC5)CC4)cc3OC)nc2N1C(C)C [volasertib]
Outline: as §1

[3] = compound: CCn1c(C(=O)N(C2CC2)C2CC2)cc2c3c(ncn3C)c(Nc3cc(C)n(C)n3)nc21
Outline: as §1

[4] = compound: CCn1cc(-c2ccnc3[nH]c(-c4cccc(CN(C)C)c4)cc23)c(-c2ccc(NC(=O)N(C)C)cc2)n1
Outline: as §1

[5] = compound: CN1CCC(CNc2ccc3ncc(-c4cccc(OC(F)(F)F)c4)n3n2)CC1
Outline: as §1

saracatinib = compound: CN1CCN(CCOc2cc(OC3CCOCC3)c3c(Nc4c(Cl)ccc5c4OCO5)ncnc3c2)CC1 [saracatinib]
Outline: as §1

sotrastaurin = compound: CN1CCN(c2nc(C3=C(c4c[nH]c5ccccc45)C(=O)NC3=O)c3ccccc3n2)CC1 [sotrastaurin]
Outline: as §1

alvocidib = compound: CN1CC[C@H](c2c(O)cc(O)c3c(=O)cc(-c4ccccc4Cl)oc23)[C@H](O)C1 [alvocidib]
Outline: as §1

Tubastatin A = compound: CN1CCc2c(c3ccccc3n2Cc2ccc(C(=O)NO)cc2)C1 [Tubastatin A]
Outline: as §1

[6] = compound: CNC(=O)C1=CC=CC=C1NC2=NC(=NC=C2Cl)NC3=C(C=C(C=C3)N4CCOCC4)OC
Outline: as §1

defactinib = compound: CNC(=O)c1ccc(Nc2ncc(C(F)(F)F)c(NCc3nccnc3N(C)S(C)(=O)=O)n2)cc1 [defactinib]
Outline: as §1

[7] = compound: CNc1nc(-c2ccc3c(N)n[nH]c3c2)cc(N2C[C@@H](C(=O)NC3CCCCC3)CC[C@H]2C)n1
Outline: as §1

encorafenib = compound: COC(=O)N[C@@H](C)CNc1nccc(-c2cn(C(C)C)nc2-c2cc(Cl)cc(NS(C)(=O)=O)c2F)n1 [encorafenib]
Outline: as §1

[8] = compound: COC(=O)[C@H](CCSC)NC(=O)C1=C(C=C(C=C1)NC[C@H](CS)N)C2=CC=CC=C2
Outline: as §1

alisertib = compound: COc1cc(Nc2ncc3c(n2)-c2ccc(Cl)cc2C(c2c(F)cccc2OC)=NC3)ccc1C(=O)O [alisertib]
Outline: as §1

[9] = compound: COc1cc2nc(-c3cc(F)ccc3O)nc(N[C@@H]3CNC[C@H]3C(C)(C)O)c2cc1OC
Outline: as §1

gefitinib = compound: COc1cc2ncnc(Nc3ccc(F)c(Cl)c3)c2cc1OCCCN1CCOCC1 [gefitinib]
Outline: as §1

| Target | log2 fold change (vemurafenib) | log2 fold change [1] | log2 fold change (barasertib) | log2 fold change [2] | log2 fold change (volasertib) | log2 fold change [3] | log2 fold change [4] | log2 fold change [5] | log2 fold change (saracatinib) | log2 fold change (sotrastaurin) | log2 fold change (alvocidib) | log2 fold change (Tubastatin A) | log2 fold change [6] | log2 fold change (defactinib) | log2 fold change [7] | log2 fold change (encorafenib) | log2 fold change [8] | log2 fold change (alisertib) | log2 fold change [9] | log2 fold change (gefitinib) |
| --- | --- | --- | --- | --- | --- | --- | --- | --- | --- | --- | --- | --- | --- | --- | --- | --- | --- | --- | --- | --- |
| RPL4 (UniProt P36578) | inactive: -0.017 | inactive: 0.003 | inactive: -0.074 | inactive: 0.019 | inactive: -0.005 | inactive: 0.002 | inactive: 0.145 | inactive: -0.016 | inactive: -0.008 | inactive: 0.012 | inactive: 0.019 | inactive: 0.002 | inactive: -0.014 | inactive: 0.038 | inactive: 0.009 | inactive: 0.01 | inactive: -0.005 | inactive: -0.001 | inactive: -0.003 | inactive: -0.042 |
| RPN2 (UniProt P04844) | inactive: 0.009 | inactive: 0.008 | inactive: 0.019 | inactive: 0 | inactive: 0.003 | inactive: -0.003 | inactive: -0.084 | inactive: 0.033 | inactive: 0.008 | inactive: 0.008 | inactive: -0.024 | inactive: 0.001 | inactive: -0.024 | inactive: -0.006 | inactive: -0.01 | inactive: 0.041 | inactive: -0.031 | inactive: -0.008 | inactive: -0.03 | inactive: 0.011 |
| RPRD2 (UniProt Q5VT52) | inactive: 0.021 | inactive: -0.037 | inactive: 0.087 | inactive: 0.018 | inactive: -0.012 | inactive: -0.024 | inactive: -0.003 | inactive: 0.022 | inactive: -0.015 | inactive: -0.025 | inactive: 0.015 | inactive: -0.059 | inactive: 0.048 | inactive: -0.032 | inactive: 0.004 | inactive: 0.125 | inactive: -0.023 | inactive: -0.081 | inactive: 0.052 | inactive: -0.042 |
| RPS12 (UniProt P25398) | inactive: -0.009 | inactive: 0.006 | inactive: 0.043 | inactive: 0.015 | inactive: 0.022 | inactive: 0.009 | inactive: 0.037 | inactive: -0.023 | inactive: -0.023 | inactive: -0.056 | inactive: 0.008 | inactive: -0.009 | inactive: 0.009 | inactive: -0.007 | inactive: 0.044 | inactive: -0.007 | inactive: -0.041 | inactive: -0.005 | inactive: 0 | inactive: -0.009 |
| RPLP1 (UniProt P05386) | inactive: 0.005 | inactive: 0.003 | inactive: 0.059 | inactive: -0.019 | inactive: 0.052 | inactive: -0.018 | inactive: 0.015 | inactive: 0.024 | inactive: 0.001 | inactive: -0.057 | inactive: 0.033 | inactive: 0.032 | inactive: 0.013 | inactive: 0.048 | inactive: 0.024 | inactive: 0.048 | inactive: -0.002 | inactive: 0.043 | inactive: -0.072 | inactive: -0.189 |
| RPS9 (UniProt P46781) | inactive: -0.037 | inactive: -0.01 | inactive: -0.003 | inactive: -0.074 | inactive: -0.005 | inactive: 0.03 | active: 0.302 | inactive: -0.063 | inactive: 0 | inactive: -0.023 | inactive: 0.053 | inactive: 0.006 | inactive: -0.036 | inactive: -0.064 | inactive: 0.006 | inactive: -0.022 | inactive: 0.065 | inactive: 0.004 | inactive: -0.003 | inactive: -0.033 |
| RPLP0P6 (UniProt Q8NHW5) | inactive: -0.002 | inactive: 0.012 | inactive: -0.121 | inactive: 0.009 | inactive: -0.009 | inactive: -0.02 | inactive: -0.011 | inactive: 0.017 | inactive: -0.011 | inactive: -0.02 | inactive: -0.018 | inactive: 0.015 | inactive: -0.001 | inactive: -0.014 | inactive: 0.023 | inactive: 0.001 | inactive: 0.018 | inactive: 0.004 | inactive: 0.023 | inactive: -0.019 |
| RPS23 (UniProt P62266) | inactive: -0.016 | inactive: 0.034 | inactive: -0.023 | inactive: 0.027 | inactive: -0.002 | inactive: -0.039 | inactive: 0.1 | inactive: -0.051 | inactive: -0.037 | inactive: -0.026 | inactive: 0.026 | inactive: 0.034 | inactive: -0.011 | inactive: -0.018 | inactive: 0.062 | inactive: -0.028 | inactive: 0.065 | inactive: 0.01 | inactive: -0.01 | inactive: -0.061 |
| RPS26P11 (UniProt Q5JNZ5) | inactive: 0.012 | inactive: -0.01 | inactive: -0.03 | inactive: 0.041 | inactive: 0.017 | inactive: 0.02 | active: -0.688 | inactive: 0.224 | inactive: 0.009 | inactive: 0.05 | inactive: -0.216 | inactive: 0.038 | inactive: -0.064 | inactive: 0.011 | inactive: 0.02 | inactive: 0.007 | inactive: 0.006 | inactive: -0.006 | inactive: -0.032 | inactive: -0.056 |
| RPS2 (UniProt P15880) | inactive: -0.011 | inactive: 0.002 | inactive: -0.038 | inactive: 0.001 | inactive: -0.005 | inactive: -0.019 | inactive: 0.004 | inactive: -0.029 | inactive: -0.015 | inactive: -0.016 | inactive: 0.01 | inactive: 0.007 | inactive: -0.006 | inactive: 0.017 | inactive: 0.058 | inactive: -0.032 | inactive: 0.019 | inactive: 0.008 | inactive: -0.005 | inactive: -0.044 |
| RTF2 (UniProt Q9BY42) | inactive: 0.01 | inactive: 0.039 | inactive: 0.027 | inactive: 0.047 | inactive: -0.08 | inactive: -0.016 | inactive: 0.044 | inactive: 0 | inactive: -0.004 | inactive: 0.053 | inactive: 0.014 | inactive: -0.031 | inactive: 0.04 | inactive: 0.016 | inactive: -0.004 | inactive: 0.007 | inactive: -0.028 | inactive: -0.012 | inactive: 0.043 | inactive: 0.039 |
| RTN4 isoform 5 (UniProt Q9NQC3) | inactive: -0.01 | inactive: -0.038 | inactive: 0.023 | inactive: -0.085 | inactive: -0.019 | inactive: 0.02 | inactive: -0.103 | inactive: 0.113 | inactive: 0.057 | inactive: 0.033 | inactive: 0.005 | inactive: 0.046 | inactive: -0.068 | inactive: 0.031 | inactive: -0.046 | inactive: 0.134 | inactive: -0.04 | inactive: 0.021 | inactive: -0.005 | inactive: 0.014 |
| RPL7 (UniProt P18124) | inactive: -0.002 | inactive: -0.02 | inactive: -0.017 | inactive: 0.024 | inactive: 0.002 | inactive: -0.008 | inactive: -0.029 | inactive: 0.021 | inactive: 0.003 | inactive: -0.014 | inactive: 0.006 | inactive: 0.012 | inactive: 0.012 | inactive: -0.002 | inactive: 0.038 | inactive: -0.021 | inactive: -0.006 | inactive: 0.012 | inactive: -0.001 | inactive: -0.057 |
| RSRC1 (UniProt Q96IZ7) | inactive: -0.002 | inactive: 0.012 | inactive: -0.035 | inactive: -0.013 | inactive: 0.029 | inactive: -0.054 | inactive: 0.054 | inactive: 0.005 | inactive: -0.039 | inactive: -0.006 | inactive: -0.056 | inactive: 0.056 | inactive: 0.017 | inactive: -0.006 | inactive: 0.062 | inactive: 0.058 | inactive: -0.051 | inactive: 0.005 | inactive: 0 | inactive: -0.073 |
| RRS1 (UniProt Q15050) | inactive: -0.016 | inactive: 0.031 | inactive: 0.01 | inactive: -0.078 | inactive: -0.035 | inactive: 0.006 | inactive: -0.135 | inactive: 0.022 | inactive: -0.005 | inactive: 0.008 | inactive: -0.013 | inactive: -0.06 | inactive: -0.008 | inactive: -0.047 | inactive: 0.092 | inactive: 0.039 | inactive: -0.005 | inactive: -0.031 | inactive: -0.012 | inactive: 0.002 |
| RPL7L1 (UniProt Q6DKI1) | inactive: 0.045 | inactive: 0.008 | inactive: 0.001 | inactive: -0.046 | inactive: -0.035 | inactive: 0.033 | inactive: -0.049 | inactive: -0.02 | inactive: -0.039 | inactive: 0.014 | inactive: 0.007 | inactive: -0.008 | inactive: 0.005 | inactive: -0.026 | inactive: 0.065 | inactive: 0.004 | inactive: 0.044 | inactive: -0.015 | inactive: 0.02 | inactive: -0.006 |

Quoted from the listing.
RPL4 (UniProt P36578) | log2 fold change (gefitinib): inactive: -0.042
RRS1 (UniProt Q15050) | log2 fold change (encorafenib): inactive: 0.039
